Results reported in article PMC10163288.
The list shows a part of the results.

B1: il2ra_site2_2erj_sap_17_mot_HHH_b2_05720_000000165_0001_1_18_H_._HHH_b2_07625_af2_0001_0000700024_0000001_0_0001 (protein)
chain: SSSSSDEEEREAERITEEIEERIDDPEERLREFFRVAVELLREGDPRTAHILLRLAQEGSSSSSS
B2: il2ra_site1_1z92_normal_mot_30aa582283ecb64a35315be28fff3e94_0001_000000110_0001_35_49_H_._HHH_b2_06812_0001_0000100001_0000001_0_af2pred_0001_af2pred_1 (protein)
chain: SSSSSLERAARRLVEDAVRMAGLSEEEQKELEELAERLVEEGVSALEIAKILEKFVRELLSSSSS
B3: il2ra_site2_3nfp_sap_17_mot_HHH_b2_02902_af2_000000043_0001_44_57_H_._85951a6590fc85ab439bb9084ebbbcb9_0001_0001_0000300012_0000001_0_0001 (protein)
chain: SSSSDEERREAEELFEELQELLEENDKFEVMQVLVKLFELASETGDEEAAELVIKIYKQALSSSS
B4: il2ra_site2_3nfp_normal_mot_HHH_b2_02437_000000052_0001_42_56_H_._HHH_b2_00069_af2_0001_0000300011_0000001_0 (protein)
chain: SSSSSDEEVQERVKELLEEAEKTSDPEERERLLAEATQLAYELRDSELFYLIAEVLYELGSSSSS
B5: il2ra_site2_3nfp_sap_16_mot_HHH_b2_07498_000000057_0001_1_14_H_._HHH_b1_00658_0001_0001300048_0000001_0_0001 (protein)
chain: SDEKAELANEAAQIALRLSKSPDPEDARVALEIYKLLREAYEVPDEEESKEILEEAVELARRYSS
B6: il2ra_site1_2b5i_normal_mot_517d2b11c41c928dd1a3662be3bb3df0_0001_000000298_0001_37_51_H_._HHH_b1_05252_af2_0001_0000300021_0000001_0_af2pred_dldesign_0_af2pred (protein)
chain: SSSSPEEEFHRLADEIDDLVAAGRLDEARALLAELQALAEAMKDPKLIKFARDRARYLERRESSS
B7: il2ra_site2_2erj_sap_19_mot_HHH_b2_03015_000000099_0001_44_57_H_._HHH_b2_04873_0001_0000200010_0000001_0_0001_af2pred_0001_1_af2pred_swapped (protein)
chain: SSSSSEELAKFTQEVAREADELAENGNPEEARRVLEEAREFLKEHGNKNLIRNVERELKRISSSS
B8: il2ra_site2_2erj_normal_mot_HHH_b1_02757_000000121_0001_41_57_H_._HHH_b1_08327_0001_0000300020_0000001_0_af2pred_0001_1_af2pred_swapped (protein)
chain: SSSSSSDHEEEVERLLEEAKHVPDIREALKLLRQAAQIAIRNDNEELFELVTEVLRRSSSSSSSS
B9: il2ra_site1_1z92_normal_mot_HHH_b2_05373_af2_000000032_0001_24_40_H_._66959ead3e6c57cb3ef8243f3eb758e0_0001_1_af2_0001_0000200020_0000001_0_af2pred_0001_af2pred (protein)
chain: SLAEEDLEEAVEKNDEELLRRFIELLLKDVGDPELVRQLLKQLVKRLGLPPEVLERLRELLEELT
B10: il2ra_site2_2erj_sap_26_mot_HHH_b2_02430_000000062_0001_23_40_H_._HHH_b1_08172_af2_0001_0000400031_0000001_0_0001 (protein)
chain: SSSSDKLRRLYELANELLHLVSRGDEERFEEVAEEVRELVEELNSDTAREVLEVLERLIKSSSSS

Target: il2ra, P01589
Experiment: yeast display titration

Apparent Kd, inactive:
B1 no binding seen
B2 no binding seen
B3 no binding seen
B4 no binding seen
B5 no binding seen
B6 no binding seen
B7 no binding seen
B8 no binding seen
B9 no binding seen
B10 no binding seen
